No constants are given. Whether binding was seen depends on the method and setting. Some binding calls cover weakened binding; strength is not graded here.

Sequences of proteins named here, by UniProt entry; tags and fusion partners are left off. A change or cut given only in a name is not applied to a line headed by its entry. A line that says so, or that is headed by a name, gives the form on record, which may keep a tag or linker.
UniProt Q02223: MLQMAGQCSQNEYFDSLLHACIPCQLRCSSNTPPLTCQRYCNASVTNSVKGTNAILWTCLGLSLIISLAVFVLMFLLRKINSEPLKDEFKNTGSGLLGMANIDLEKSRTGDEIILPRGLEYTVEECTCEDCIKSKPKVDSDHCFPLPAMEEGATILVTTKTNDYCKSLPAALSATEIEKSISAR
recombinant mouse Δ-APRIL tagged with hemagglutinin (HA) (R&D Systems Europe, #7907-AP-010) (Q9D777, form named): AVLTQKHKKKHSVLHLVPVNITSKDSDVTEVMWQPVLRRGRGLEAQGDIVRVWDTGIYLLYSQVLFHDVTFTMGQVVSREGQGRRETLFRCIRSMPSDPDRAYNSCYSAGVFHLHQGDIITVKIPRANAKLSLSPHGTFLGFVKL

For the test, the target named is human BCMA on BCMA-expressing multiple myeloma cells (H929, RPMI-8226) (human) (UniProt Q02223). The experiment in a line: flow cytometry on H929 cells, Δ-APRIL (HA-tagged) at […] incubated simultaneously with 20 ug/mL isotype control or clone 83A10, fluorochrome-conjugated anti-HA detection.

On to “recombinant mouse Δ-APRIL tagged with hemagglutinin (HA) (R&D Systems Europe, #7907-AP-010) (from UniProt Q9D777 96-241) (ligand)”, for which the binding entry is reported as “binds”.

These data come from US20150368351A1.
